# Experimental data reported in PubChem BioAssay AID540256 (National Center for Advancing Translational Sciences (NCATS), 2011).
# Screen size: about 300,000 compounds; about 3,700 (1.2%) were called active. Inconclusive results, whose numbers are uncertain, are shown with a selection of clear calls. Calls follow the shape of the full dose curve; tested in HEK293 cells. Potencies beside an inconclusive call are fits to weak or partial responses and may not hold up.
# Assay: qHTS for Inhibitors of binding or entry into cells for Lassa Virus; also: nearly all actives have a fitted effect of over 50% in size
# Conditions: Lassa virus pseudotype entry inhibition, cell reporter; series mostly up to 37.9 µM
# Potency is read from the fitted curve at half-maximal effect.
row,Structure (SMILES),Potency
1,COc1cc(C(=S)N2CCOCC2)ccc1OC(=O)c1cc([N+](=O)[O-])cc([N+](=O)[O-])c1,inactive
2,COc1ccc(/C(N)=N/OC(=O)c2c(-c3ccccc3Cl)noc2C)cc1OC,"inconclusive: 17.8 µM [inhibitor, partial curve, poor fit]"
3,CCOC(=O)c1ccc(N2C(=O)C3C(C2=O)C(C(=O)c2ccc(Cl)cc2)N2CCCC32)cc1 (stereo unspecified),inactive
4,Cn1cc(Br)c(C(=O)NNC(=O)c2ccc(Cl)cc2)n1,inactive
5,CCC(=O)Nc1ccc(C(=O)CSc2nnc(-c3ccc(O)cc3)n2CC2CCCO2)cc1 (stereo unspecified),"inconclusive: 2.06 µM [inhibitor, full curve]"
6,CCOC(=O)C1CCN(C(=O)CCN2C(=O)C3C4C=CC(C4)C3C2=O)CC1 (stereo unspecified),inactive
7,O=[N+]([O-])c1ccc(Cl)c(S(=O)(=O)Nc2cccc(-c3ccc(N4CCCC4)nn3)c2)c1,inactive
8,Cn1nc(C(=O)Nc2ccc3c(c2)OCCO3)cc1C(=O)O,"inconclusive: 7.94 µM [inhibitor, partial curve, poor fit]"
9,Cc1ccc[n+](CC(=O)Nc2ccc(Cl)c([N+](=O)[O-])c2)c1,"inconclusive: 5.62 µM [inhibitor, single point]"
10,O=C(NCc1ccccc1)c1ccc(-c2ccccc2C(F)(F)F)o1,active: 2.31 µM
11,O=C(N/N=C/c1ccc2cccnc2c1)c1ccco1,"inconclusive: 22.4 µM [inhibitor, single point]"
12,CC(C)(CNC(=O)c1ccc(Cl)c(S(=O)(=O)N2CCc3ccccc3C2)c1)N1CCOCC1,active: 11.2 µM
13,COc1cc(C(C(=O)NC2CCCC2)N(C(=O)c2ccco2)c2ccccc2C(C)=O)cc(OC)c1OC (stereo unspecified),"inconclusive: 11.2 µM [inhibitor, single point]"
14,CSc1c[n+]2c(n1C)CCC2,"inconclusive: 29.1 µM [activator, single point]"
15,Cc1ccc(Nc2nnc(SCC(=O)Nc3ncc(S(=O)(=O)c4ccc([N+](=O)[O-])cc4)s3)s2)cc1,"inconclusive: 1.41 µM [activator, partial curve, poor fit]"
16,Cc1cc(Cl)ccc1C(=O)C1CCCN(C(=O)c2n[nH]c3c2CCCC3)C1 (stereo unspecified),inactive
17,COC(=O)Nc1nc(C)c(C(=O)c2ccccc2)s1,"inconclusive: 3.98 µM [inhibitor, full curve, poor fit]"
18,Cc1ccnc(NC(=O)C2CCN(S(=O)(=O)c3ccc4c(c3)CC(C)N4C(=O)C3CCC3)CC2)c1 (stereo unspecified),"inconclusive: 20 µM [inhibitor, single point]"
19,COC(=O)C1=C(Nc2ccc(C)cc2)C=C(C)C(C(=O)OC)C1c1ccc(OC)cc1 (stereo unspecified),"inconclusive: 9.2 µM [inhibitor, partial curve, poor fit]"
20,CCCn1c(Sc2nc3c(c(=O)[nH]c(=O)n3C)n2CCC)nc2c1c(=O)[nH]c(=O)n2C,"inconclusive: 1.26 µM [activator, single point]"
21,CCCCn1c(O)c(/C=C/C=C/C=Nc2ccccc2)sc1=S,inactive
22,COc1ccc(C(=O)NC(=S)Nc2ccc(N3CCN(C(C)=O)CC3)cc2)cc1[N+](=O)[O-],inactive
23,CCC(=O)NC(=S)Nc1ccc(N2CCOCC2)cc1,inactive
24,CC1Cc2cc(S(=O)(=O)N3CCN(c4cccc(Cl)c4)CC3)ccc2N1C(=O)C1CC1 (stereo unspecified),"inconclusive: 6.31 µM [inhibitor, partial curve, poor fit]"

# In the list so far, these contain an NH in an aromatic ring:
row,Structure (SMILES),Potency
16,Cc1cc(Cl)ccc1C(=O)C1CCCN(C(=O)c2n[nH]c3c2CCCC3)C1 (stereo unspecified),inactive
20,CCCn1c(Sc2nc3c(c(=O)[nH]c(=O)n3C)n2CCC)nc2c1c(=O)[nH]c(=O)n2C,"inconclusive: 1.26 µM [activator, single point]"

# Later entries

row,Structure (SMILES),Potency
1,O=C1C(=O)N(CNc2ccccn2)c2ccccc21,"inconclusive: 20.6 µM [inhibitor, single point]"
2,Cc1ccc(S(=O)(=O)N(C)C)cc1NC(=O)COC(=O)/C(=C/c1ccc(F)cc1)c1cccs1,"inconclusive: 28.2 µM [inhibitor, single point]"
3,C/C(=N\NC(=O)c1c(Br)c(C)nn1C)c1cccc(NC(=O)C2CCC2)c1,inactive
4,CCN(CC)C(=O)c1sc(NC(=O)Cc2ccc(OC)cc2)c(C#N)c1C,"inconclusive: 1.26 µM [inhibitor, full curve, poor fit]"
5,C=C(C)CN=c1scc(C)n1/N=C/c1ccco1,"inconclusive: 35.5 µM [activator, single point]"
6,COc1ccc(NC(=S)N(CCCN2CCN(C)CC2)Cc2cccs2)cc1,"inconclusive: 0.631 µM [inhibitor, partial curve, poor fit]"
7,COc1ccc(-c2csc(=Nc3c(C)n(C)n(-c4ccccc4)c3=O)n2C(C)(C)C)cc1,"inconclusive: 7.3 µM [activator, partial curve, poor fit]"
8,COc1ccc(-n2cnnc2SCC(=O)NC2CCCc3ccccc32)cc1 (stereo unspecified),"inconclusive: 35.5 µM [inhibitor, partial curve, poor fit]"
9,C=CCn1c(NC(=O)c2ccco2)nc2ccccc21,inactive
10,N/C(=N\OC(=O)c1ccc(F)cc1)c1nonc1N,inactive
11,CCCCN(C)CCN1C(=O)C2C(C(=O)Nc3ccc(Cl)cc3)C3C=CC2(O3)C1C(=O)NC1CCCCC1 (stereo unspecified),inactive
12,CC(=O)c1cccc(NS(=O)(=O)c2c(C)noc2C)c1,inactive
13,COCCNC(=S)NNC(=O)c1ccco1,"inconclusive: 2.91 µM [activator, partial curve, poor fit]"
14,CSCCC(NS(=O)(=O)c1ccc2c(c1)oc(=O)n2C)C(=O)N1CCN(c2cccc(Cl)c2)CC1 (stereo unspecified),"inconclusive: 11.2 µM [inhibitor, partial curve]"
15,FC(F)(F)c1cccc(NC(=S)NC(c2ccccc2)c2ccccc2)c1,inactive
16,CN(C(=O)COC(=O)c1ccccc1NCCO)C1CCS(=O)(=O)C1 (stereo unspecified),inactive
17,Cc1onc(-c2ccccc2)c1C(=O)Nc1ccc2c(C)cc(=O)oc2c1,inactive
18,c1cc2ccc3ccc(CN4CCOCC4)c4ccc(c1)c2c34,inactive
19,O=C(CN1C(=O)COc2ccc(S(=O)(=O)N3CCCCC3)cc21)NCc1ccc(Cl)cc1,inactive
20,CN(C(=O)c1cc2c(s1)-c1ccc(Cl)cc1SC2)c1cccc(C(F)(F)F)c1,inactive
21,CCN(CC(=O)N1CCc2ccccc2C1)S(=O)(=O)c1ccc2ccccc2c1,"inconclusive: 4.61 µM [inhibitor, full curve]"
22,Cc1ccc(N(CC(=O)N2CCCCCC2)S(=O)(=O)c2ccccc2)cc1,"inconclusive: 3.98 µM [inhibitor, partial curve, poor fit]"
23,Cc1ccc(C(=O)Nc2ccc(S(=O)(=O)N3CCc4ccccc4C3)cc2)o1,"inconclusive: 18.3 µM [inhibitor, single point]"
24,Cc1cc(C)c2nc(N3CCC(C(=O)N4CCCC4)CC3)sc2c1,inactive

row,Structure (SMILES),Potency
1,COc1ccc([N+](=O)[O-])cc1NC(=O)C1CCCN1S(=O)(=O)c1cccs1 (stereo unspecified),"inconclusive: 31.6 µM [inhibitor, partial curve, poor fit]"
2,Cc1ccc2cc3c(N)nn(C(=O)c4cccc(F)c4)c3nc2c1,inactive
3,O=C(Nc1nnc(COc2ccc(Br)cc2)s1)c1ccco1,"inconclusive: 35.5 µM [activator, single point]"
4,CCN1CCN(S(=O)(=O)c2cc(OCC(=O)NC3CCCCC3)c(C)cc2Cl)CC1,inactive
5,CC(C(=O)Nc1ncccn1)(c1ccccc1)c1ccccc1,inactive
6,O=c1c2ccccc2n(CC(O)CN2CCCCC2)c2ccccc12 (stereo unspecified),"inconclusive: 7.94 µM [inhibitor, partial curve, poor fit]"
7,O=[N+]([O-])c1cccc(-c2nnc(SCc3cccnc3)o2)c1,inactive
8,O=C(C1=C(O)C(=O)N(c2nccs2)C1c1ccccc1)c1cc2ccccc2o1 (stereo unspecified),"inconclusive: 4.47 µM [inhibitor, single point]"
9,c1ccc(Nc2nc(-c3ccncc3)cs2)cc1,"inconclusive: 0.891 µM [activator, partial curve, poor fit]"
10,Cc1ccccc1-n1c(SCC(=O)N/N=C/C=C/c2ccccc2[N+](=O)[O-])nc2ccccc2c1=O,"inconclusive: 29.1 µM [inhibitor, partial curve, poor fit]"
11,CC(=O)Nc1ccc(C(=O)NNC(=O)C2C3CCCCC32)cc1 (stereo unspecified),"inconclusive: 12.6 µM [activator, single point]"
12,Cc1nc2ccc(-c3nc4ccccc4o3)cc2[nH]1,"inconclusive: 0.58 µM [activator, full curve]"
13,Fc1ccc(-c2noc3ncnc(NCC4CCN(Cc5ccc(Cl)cc5)CC4)c23)cc1,"inconclusive: 15.8 µM [inhibitor, single point]"
14,Cc1ccc(S(=O)(=O)N2CCSCCSCCSCCSCC2)cc1,inactive
15,O=C(c1cc(COc2ccc(F)cc2Cl)on1)N1CCSCC1,inactive
16,O=C(Nc1ccccn1)C1CCN(S(=O)(=O)c2ccc3c(c2)OCCCO3)CC1,inactive
17,O=[N+]([O-])c1ccc2nc(CN3CCCCC3)[nH]c2c1,"inconclusive: 31.6 µM [activator, single point]"
18,CSc1ccc(-c2nc(CSCC(=O)N3CCOCC3)c(C)o2)cc1,inactive
19,Cc1sc2nc(-c3ccc(Br)cc3)oc(=O)c2c1C,"inconclusive: 1.12 µM [activator, full curve, poor fit]"
20,COCCN(CCOC)Cc1cc(=O)oc2cc(C)cc(C)c12,"inconclusive: 0.01 µM [activator, full curve, poor fit]"
21,CC1(C)Cc2c(sc3c2C(=O)NC(c2cccnc2)N3)CO1 (stereo unspecified),inactive
22,CCn1ccc2c(OCC(=O)Nc3ccccc3C)cccc2c1=O,inactive
23,Cc1cccn2c(=O)c3cc(C(N)=S)c(=N)n(CCCOC(C)C)c3nc12,"inconclusive: 18.3 µM [inhibitor, partial curve]"

# 3 compounds already listed, sorted by molecular weight, high to low:
row,Structure (SMILES),Potency
13,Fc1ccc(-c2noc3ncnc(NCC4CCN(Cc5ccc(Cl)cc5)CC4)c23)cc1,"inconclusive: 15.8 µM [inhibitor, single point]"
22,CCn1ccc2c(OCC(=O)Nc3ccccc3C)cccc2c1=O,inactive
11,CC(=O)Nc1ccc(C(=O)NNC(=O)C2C3CCCCC32)cc1 (stereo unspecified),"inconclusive: 12.6 µM [activator, single point]"
